The values that follow come from patent US10064901B2, “Compositions and methods” (priority 2013, dated 2018).

Where two headings read alike, the source gives them in different places.

This data set is classed as in vivo, mouse.

As for Clostridium_mayombei, the “OTU sequence reads after dosing (OTU-level analysis, Table TAB)” value (“OTU sequence reads after dosing” below) (Day −1 vs Days 2, 3, 4) is recorded as “not detectable at the OTU level”.
Regarding Clostridium_butyricum, the “OTU sequence reads after dosing” value (mouse, in vivo) is “subsequent and large numbers of sequence reads on Days 2, 3, or 4”.
For the substance Clostridium_disporicum, for the setting “Day −1 vs Days 2, 3 or 4”, the “increase of sequence reads” value is on record as not above 1000 fold.
Take Clostridium_symbiosum: the “OTU sequence reads after dosing” value (Day −1 vs Days 2, 3, 4) was “subsequent and large numbers of sequence reads on Days 2, 3, or 4”.
